# Experimental data: PubChem BioAssay AID743454 (Peter MacCallum Cancer Centre, 2014)
# Screen: 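Knock-downs lowering viability or raising caspase 3/7 activity in vorinostat-treated resistant cells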 (primary screen)
# Cells: human HCT116-VR colon cancer cells, selected for vorinostat resistance
# Reagent: siRNA pool against human genes, 40 nM siRNA pool
# Timing: vorinostat for 24 h, read-out about 72 h after transfection
# Conditions: vorinostat at 2.5 µM final
# Measurement: 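Cell viability by CellTiter-Fluor and caspase 3/7 activity by luminescence, each scaled to mock wells per plate, duplicates averaged, then robust z-scored over all plates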
# Direction: viability robust z-score: higher = more viable cells than screen typical; caspase robust z-score: higher = more caspase 3/7 activity than screen typical
# Active means: 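Hits are knock-downs in viability class RV1/RV2 or caspase class CA1/CA2, excluding ones that killed cells in the no-drug cell-count arm; hits then retested with single siRNAs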
# This is an unselected part of about 18,000 reagents tested. Of all reagents, 450 (2.5%) were called active. 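Single biological run; no consistent viability z cut-off exists, so the class columns, not z-scores, define the calls.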
gene,viability hit class,caspase hit class,viability robust z-score,caspase robust z-score,call
ZG16 (GeneID 653808),no change,no change,-0.54,3.71,inactive
CD81 (GeneID 975),no change,no change,0.39,1.81,inactive
GPR151 (GeneID 134391),no change,no change,0.41,-0.02,inactive
SLC41A2 (GeneID 84102),no change,no change,-0.29,1,inactive
LYZL4 (GeneID 131375),no change,no change,-1.66,0.54,inactive
OR1N1 (GeneID 138883),no change,no change,1.22,-0.48,inactive
MAMLD1 (GeneID 10046),no change,no change,-0.32,-0.58,inactive
DDR2 (GeneID 4921),no change,no change,-0.42,-1.02,inactive
TMOD2 (GeneID 29767),no change,no change,-1.43,0.13,inactive
PMS2P5 (GeneID 5383),no change,no change,0.24,0.27,inactive
TGOLN2 (GeneID 10618),no change,no change,-0.82,0.21,inactive
ZNF713 (GeneID 349075),no change,no change,-0.74,-0.83,inactive
LCA5L (GeneID 150082),no change,no change,0.81,-0.65,inactive
JAML (GeneID 120425),no change,no change,0.3,-0.38,inactive
IFT25 (GeneID 51668),no change,no change,1.15,-0.52,inactive
GOT1L1 (GeneID 137362),no change,no change,0.62,-0.38,inactive
PHKG2 (GeneID 5261),no change,no change,0.26,-0.61,inactive
FAHD2A (GeneID 51011),no change,no change,-0.32,2.12,inactive
TNKS (GeneID 8658),no change,no change,-0.14,0.29,inactive
C10orf95 (GeneID 79946),no change,no change,0.83,0.06,inactive
ARPC5L (GeneID 81873),no change,no change,0.99,-0.55,inactive
RTRAF (GeneID 51637),no change,no change,0.18,0.34,inactive
ZNRF1 (GeneID 84937),no change,no change,-0.56,-1.02,inactive

An excerpt of the results above, for reference:
gene,viability hit class,caspase hit class,viability robust z-score,caspase robust z-score,call
MAMLD1 (GeneID 10046),no change,no change,-0.32,-0.58,inactive
DDR2 (GeneID 4921),no change,no change,-0.42,-1.02,inactive
TMOD2 (GeneID 29767),no change,no change,-1.43,0.13,inactive
PMS2P5 (GeneID 5383),no change,no change,0.24,0.27,inactive
